Laboratory results reported in article PMC10235469.
No constants are given. Whether binding was seen depends on the method and setting. In cells and extracts the contact can be indirect. Binding can be weak; no strength is given.

Target: Flag-SIRT3 (Sirtuin 3)
Test: co-IP; HEK293T cells co-expressing Flag-SIRT3 with or without XBP1s; antibody or normal IgG added to 1 mg precleared cell lysate overnight at 4°C, Protein A/G-Plus Beads 3 hours at 4°C; blots probed for SIRT3 or XBP1s

binding: binds
B1: spliced form of X-box binding protein 1 (XBP1s) (protein, UniProt P17861-2 1-376)
chain: MVVVAAAPNPADGTPKVLLLSGQPASAAGAPAGQALPLMVPAQRGASPEAASGGLPQARKRQRLTHLSPEEKALRRKLKNRVAAQTARDRKKARMSELEQQVVDLEEENQKLLLENQLLREKTHGLVVENQELRQRLGMDALVAEEEAEAKGNEVRPVAGSAESAAGAGPVVTPPEHLPMDSGGIDSSDSESDILLGILDNLDPVMFFKCPSPEPASLEELPEVYPEGPSSLPASLSLSVGTSSAKLEAINELIRFDHIYTKPLVLEIPSETESQANVVVKIEEAPLSPSENDHPEFIVSVKEEPVEDDLVPELGISNLLSSSHCPKPSSCLLDAYSDCGYGGSLSPFSDMSSLLGVNHSWEDTFANELFPQLISV
